For part of these data: At least one structure is not confirmed: it was looked up by name or label, or the drawing left a doubt. Some entries repeat one wording, which the source may state once for all of them. Some of these results come from one statement about several compounds together.
Tests used:
[1] = tested on: ABL1, AKT1, AURKA, CAMK2A, CDK1, CDK2, CDK5, CHEK1, CLK1, CSF1R, DYRK1B, ERBB4, FLT3, GSK3B, INSR, JAK1, LCK, MAPK1, MAPK10, MARK2, PAK4, PDGFRA, PRKACA …; experiment: Kinase panel screening at InVitrogen, 35 other kinases; conditions: 10 μM compound; none of the kinases above this value
PLK2 = PLK2 (Homo sapiens, UniProt Q9NYY3); experiment: PLK TR-FRET peptide assay, PLK2; format: biochemical; conditions: compared with the opposite enantiomer

By UniProt entry, the sequences of proteins in these tests, tags left out. Where a name states a change or a piece, a line headed by the entry shows the natural chain unless it says otherwise.
UniProt Q9NYY3: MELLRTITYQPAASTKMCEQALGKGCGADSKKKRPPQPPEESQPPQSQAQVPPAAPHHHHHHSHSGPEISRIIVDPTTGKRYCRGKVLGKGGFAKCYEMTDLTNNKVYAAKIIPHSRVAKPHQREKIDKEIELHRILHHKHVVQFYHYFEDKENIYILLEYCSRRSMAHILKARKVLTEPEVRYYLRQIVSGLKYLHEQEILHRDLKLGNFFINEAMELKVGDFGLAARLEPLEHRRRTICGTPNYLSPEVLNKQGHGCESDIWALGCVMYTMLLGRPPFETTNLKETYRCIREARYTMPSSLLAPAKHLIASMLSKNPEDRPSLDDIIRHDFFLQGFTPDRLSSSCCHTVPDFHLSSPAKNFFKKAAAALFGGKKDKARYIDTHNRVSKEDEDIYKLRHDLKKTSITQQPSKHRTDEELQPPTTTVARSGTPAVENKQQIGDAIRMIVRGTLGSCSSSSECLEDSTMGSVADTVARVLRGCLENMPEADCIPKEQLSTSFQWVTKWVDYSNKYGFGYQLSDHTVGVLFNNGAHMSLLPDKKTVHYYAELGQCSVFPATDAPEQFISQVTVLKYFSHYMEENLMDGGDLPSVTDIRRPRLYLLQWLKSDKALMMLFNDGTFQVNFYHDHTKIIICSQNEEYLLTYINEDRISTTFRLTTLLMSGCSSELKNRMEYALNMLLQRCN

CC[C@@]12CCCN1c1nc(-n3ccnc3-c3ccccc3)ncc1N(C)C2=O [Example 76, (S)-6a-ethyl-5-methyl-2-(2-phenyl-1H-imidazol-1-yl)-6a,7,8,9-tetrahydropyrrolo[2,1-h]pteridin-6(5H)-one]
inhibition of each of the 35 listed kinases [1]: ≤ 30%

CCC12COCCN1c1nc(-n3ccnc3-c3ccccc3)ncc1N(C)C2=O (single isomer, unassigned) [Example 314]
relative PLK2 activity of the enantiomers (PLK2): more active compound

CC[C@@]12COCCN1c1nc(-c3snnc3-c3ccc(F)cn3)ncc1N(C)C2=O [Example 415, (S)-6a-ethyl-2-(4-(5-fluoropyridin-2-yl)-1,2,3-thiadiazol-5-yl)-5-methyl-6a,7,9,10-tetrahydro-[1,4]oxazino[3,4-h]pteridin-6(5H)-one]
relative PLK2 activity of the enantiomers (PLK2): more active compound

CC[C@@]12COCCN1c1nc(-c3cnoc3-c3ccccc3)ncc1N(C)C2=O [Example 413, (S)-6a-ethyl-5-methyl-2-(5-phenylisoxazol-4-yl)-6a,7,9,10-tetrahydro-[1,4]oxazino[3,4-h]pteridin-6(5H)-one]
relative PLK2 activity of the enantiomers (PLK2): more active compound

CC[C@@H]1C(=O)N(C)c2cnc(-n3ccnc3-c3cscn3)nc2N1C1CCCC1 [Example 68, (R)-8-cyclopentyl-7-ethyl-5-methyl-2-(2-(thiazol-4-yl)-1H-imidazol-1-yl)-7,8-dihydropteridin-6(5H)-one]
inhibition of each of the 35 listed kinases [1]: ≤ 30%

CC[C@@]12COCCN1c1nc(-c3cccnc3-c3ccccc3)ncc1N(C)C2=O [Example 403, (S)-6a-ethyl-5-methyl-2-(2-phenylpyridin-3-yl)-6a,7,9,10-tetrahydro-[1,4]oxazino[3,4-h]pteridin-6(5H)-one]
relative PLK2 activity of the enantiomers (PLK2): more active compound
